Publication PMC10575737
These are yes or no findings as the source states them, for the method shown. In cells and extracts the contact can be indirect. Here binding means that the protein was enriched with, or labelled near, the bait; the list need not be complete.

Chains of the proteins cited; added tags and fusions are not shown.
UniProt Q07157: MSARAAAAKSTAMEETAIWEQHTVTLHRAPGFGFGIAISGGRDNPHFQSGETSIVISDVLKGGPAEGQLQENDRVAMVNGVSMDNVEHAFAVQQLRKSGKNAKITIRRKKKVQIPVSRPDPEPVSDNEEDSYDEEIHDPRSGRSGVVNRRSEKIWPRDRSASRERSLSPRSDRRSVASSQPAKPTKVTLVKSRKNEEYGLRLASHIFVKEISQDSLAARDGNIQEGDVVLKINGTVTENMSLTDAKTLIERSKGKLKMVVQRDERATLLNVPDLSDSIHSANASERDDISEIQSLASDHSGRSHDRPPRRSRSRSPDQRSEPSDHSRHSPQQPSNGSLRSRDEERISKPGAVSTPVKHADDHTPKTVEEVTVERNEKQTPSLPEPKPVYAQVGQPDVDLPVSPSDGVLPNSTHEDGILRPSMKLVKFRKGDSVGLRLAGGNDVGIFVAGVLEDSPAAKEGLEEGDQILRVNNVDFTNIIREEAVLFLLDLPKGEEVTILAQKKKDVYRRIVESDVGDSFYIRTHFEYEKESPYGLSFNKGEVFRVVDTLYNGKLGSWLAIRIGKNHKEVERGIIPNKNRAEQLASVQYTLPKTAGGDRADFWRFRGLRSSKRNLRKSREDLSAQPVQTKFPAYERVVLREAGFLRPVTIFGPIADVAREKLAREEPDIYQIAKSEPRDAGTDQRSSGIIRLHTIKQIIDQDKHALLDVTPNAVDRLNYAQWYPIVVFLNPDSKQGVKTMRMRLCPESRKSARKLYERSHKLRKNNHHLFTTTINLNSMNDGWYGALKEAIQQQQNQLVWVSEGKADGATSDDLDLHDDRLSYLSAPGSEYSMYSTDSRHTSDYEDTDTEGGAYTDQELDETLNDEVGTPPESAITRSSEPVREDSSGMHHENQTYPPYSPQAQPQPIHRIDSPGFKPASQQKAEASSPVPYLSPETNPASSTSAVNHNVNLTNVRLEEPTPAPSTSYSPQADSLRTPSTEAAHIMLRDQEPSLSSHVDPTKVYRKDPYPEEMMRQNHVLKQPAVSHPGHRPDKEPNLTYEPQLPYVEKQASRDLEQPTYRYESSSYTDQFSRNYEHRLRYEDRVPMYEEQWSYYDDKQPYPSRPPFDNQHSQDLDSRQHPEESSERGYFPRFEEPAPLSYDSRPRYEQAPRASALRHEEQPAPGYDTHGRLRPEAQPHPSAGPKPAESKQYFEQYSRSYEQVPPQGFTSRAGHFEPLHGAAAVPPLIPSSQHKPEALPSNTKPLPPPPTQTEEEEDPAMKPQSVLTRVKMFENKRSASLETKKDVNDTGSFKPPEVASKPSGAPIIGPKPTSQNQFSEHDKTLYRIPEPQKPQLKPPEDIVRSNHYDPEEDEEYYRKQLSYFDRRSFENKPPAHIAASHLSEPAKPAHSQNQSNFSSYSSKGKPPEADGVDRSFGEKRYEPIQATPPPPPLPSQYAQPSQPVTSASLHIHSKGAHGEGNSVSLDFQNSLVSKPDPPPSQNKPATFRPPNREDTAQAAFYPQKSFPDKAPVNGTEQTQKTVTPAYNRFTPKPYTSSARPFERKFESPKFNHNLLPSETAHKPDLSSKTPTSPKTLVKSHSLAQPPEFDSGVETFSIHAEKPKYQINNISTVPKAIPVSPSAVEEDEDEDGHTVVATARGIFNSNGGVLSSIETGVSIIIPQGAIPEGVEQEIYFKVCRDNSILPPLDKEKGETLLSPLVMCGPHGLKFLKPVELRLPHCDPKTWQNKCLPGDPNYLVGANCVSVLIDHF
UniProt Q9UDY2: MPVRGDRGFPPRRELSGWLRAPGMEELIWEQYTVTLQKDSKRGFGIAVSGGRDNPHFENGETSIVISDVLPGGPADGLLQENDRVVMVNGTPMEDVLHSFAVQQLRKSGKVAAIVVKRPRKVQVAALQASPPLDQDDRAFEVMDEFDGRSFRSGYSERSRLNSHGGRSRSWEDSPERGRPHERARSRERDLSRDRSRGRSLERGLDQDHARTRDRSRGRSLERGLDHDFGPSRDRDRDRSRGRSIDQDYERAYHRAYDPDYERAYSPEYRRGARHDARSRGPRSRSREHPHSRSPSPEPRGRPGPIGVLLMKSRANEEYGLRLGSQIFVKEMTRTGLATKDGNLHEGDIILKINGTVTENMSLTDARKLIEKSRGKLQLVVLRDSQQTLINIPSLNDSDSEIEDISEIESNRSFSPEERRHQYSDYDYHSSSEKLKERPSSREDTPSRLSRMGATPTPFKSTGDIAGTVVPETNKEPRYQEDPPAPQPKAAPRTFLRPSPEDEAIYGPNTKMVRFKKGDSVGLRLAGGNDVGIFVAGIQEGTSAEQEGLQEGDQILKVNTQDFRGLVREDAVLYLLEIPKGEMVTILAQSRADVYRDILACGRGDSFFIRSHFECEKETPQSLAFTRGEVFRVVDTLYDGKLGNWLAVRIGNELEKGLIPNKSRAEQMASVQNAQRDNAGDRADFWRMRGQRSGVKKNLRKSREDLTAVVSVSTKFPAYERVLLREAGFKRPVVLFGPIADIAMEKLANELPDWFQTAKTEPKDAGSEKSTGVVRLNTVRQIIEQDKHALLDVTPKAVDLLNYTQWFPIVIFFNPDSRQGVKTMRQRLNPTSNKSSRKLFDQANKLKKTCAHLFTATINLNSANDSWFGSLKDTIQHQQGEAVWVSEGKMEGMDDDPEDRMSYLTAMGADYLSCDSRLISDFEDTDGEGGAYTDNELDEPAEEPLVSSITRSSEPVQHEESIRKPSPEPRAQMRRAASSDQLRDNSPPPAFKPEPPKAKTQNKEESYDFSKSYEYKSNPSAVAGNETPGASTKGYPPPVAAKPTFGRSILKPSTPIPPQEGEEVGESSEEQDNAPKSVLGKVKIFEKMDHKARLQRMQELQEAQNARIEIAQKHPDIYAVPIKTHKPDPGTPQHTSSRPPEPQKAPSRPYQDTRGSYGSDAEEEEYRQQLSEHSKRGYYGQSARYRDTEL
UniProt P35222: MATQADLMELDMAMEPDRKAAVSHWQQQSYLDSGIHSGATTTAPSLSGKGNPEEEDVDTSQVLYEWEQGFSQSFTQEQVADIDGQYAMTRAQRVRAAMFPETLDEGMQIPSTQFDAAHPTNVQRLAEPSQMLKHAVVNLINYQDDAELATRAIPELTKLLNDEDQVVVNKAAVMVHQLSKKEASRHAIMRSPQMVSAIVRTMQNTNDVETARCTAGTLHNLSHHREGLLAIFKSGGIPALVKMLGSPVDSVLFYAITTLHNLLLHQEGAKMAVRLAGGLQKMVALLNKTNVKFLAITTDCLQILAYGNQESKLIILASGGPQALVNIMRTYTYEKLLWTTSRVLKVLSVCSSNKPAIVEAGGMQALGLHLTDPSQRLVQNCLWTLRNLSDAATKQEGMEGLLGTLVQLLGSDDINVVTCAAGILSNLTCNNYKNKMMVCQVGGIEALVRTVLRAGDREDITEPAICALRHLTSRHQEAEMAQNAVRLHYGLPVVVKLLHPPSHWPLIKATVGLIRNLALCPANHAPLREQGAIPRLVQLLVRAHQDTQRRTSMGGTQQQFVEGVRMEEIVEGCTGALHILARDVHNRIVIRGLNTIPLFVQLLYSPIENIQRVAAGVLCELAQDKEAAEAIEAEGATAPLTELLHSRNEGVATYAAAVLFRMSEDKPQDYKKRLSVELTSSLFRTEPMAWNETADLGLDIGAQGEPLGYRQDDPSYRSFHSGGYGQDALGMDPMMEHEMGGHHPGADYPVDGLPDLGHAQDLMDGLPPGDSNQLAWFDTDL
UniProt Q7KZI7: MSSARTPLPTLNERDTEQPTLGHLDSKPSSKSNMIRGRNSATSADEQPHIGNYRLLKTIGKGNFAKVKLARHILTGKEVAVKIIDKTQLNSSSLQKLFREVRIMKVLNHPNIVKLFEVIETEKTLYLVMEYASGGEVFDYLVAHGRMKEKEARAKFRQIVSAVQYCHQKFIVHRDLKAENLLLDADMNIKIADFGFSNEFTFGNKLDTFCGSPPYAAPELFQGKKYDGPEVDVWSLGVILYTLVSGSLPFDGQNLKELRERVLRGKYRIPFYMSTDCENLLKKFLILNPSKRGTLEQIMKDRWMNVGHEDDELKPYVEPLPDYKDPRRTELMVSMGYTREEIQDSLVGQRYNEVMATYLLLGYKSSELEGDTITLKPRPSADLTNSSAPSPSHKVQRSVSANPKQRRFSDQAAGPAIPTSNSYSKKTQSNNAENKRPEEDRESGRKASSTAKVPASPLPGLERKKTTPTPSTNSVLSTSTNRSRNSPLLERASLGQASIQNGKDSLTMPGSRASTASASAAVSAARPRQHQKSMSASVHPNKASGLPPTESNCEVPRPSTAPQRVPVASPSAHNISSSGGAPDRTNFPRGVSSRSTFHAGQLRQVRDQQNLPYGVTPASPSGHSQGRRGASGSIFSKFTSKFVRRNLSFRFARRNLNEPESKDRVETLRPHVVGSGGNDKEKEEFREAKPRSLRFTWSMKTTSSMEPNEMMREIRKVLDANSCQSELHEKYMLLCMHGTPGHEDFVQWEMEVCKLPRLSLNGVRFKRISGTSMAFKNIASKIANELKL
UniProt P27448: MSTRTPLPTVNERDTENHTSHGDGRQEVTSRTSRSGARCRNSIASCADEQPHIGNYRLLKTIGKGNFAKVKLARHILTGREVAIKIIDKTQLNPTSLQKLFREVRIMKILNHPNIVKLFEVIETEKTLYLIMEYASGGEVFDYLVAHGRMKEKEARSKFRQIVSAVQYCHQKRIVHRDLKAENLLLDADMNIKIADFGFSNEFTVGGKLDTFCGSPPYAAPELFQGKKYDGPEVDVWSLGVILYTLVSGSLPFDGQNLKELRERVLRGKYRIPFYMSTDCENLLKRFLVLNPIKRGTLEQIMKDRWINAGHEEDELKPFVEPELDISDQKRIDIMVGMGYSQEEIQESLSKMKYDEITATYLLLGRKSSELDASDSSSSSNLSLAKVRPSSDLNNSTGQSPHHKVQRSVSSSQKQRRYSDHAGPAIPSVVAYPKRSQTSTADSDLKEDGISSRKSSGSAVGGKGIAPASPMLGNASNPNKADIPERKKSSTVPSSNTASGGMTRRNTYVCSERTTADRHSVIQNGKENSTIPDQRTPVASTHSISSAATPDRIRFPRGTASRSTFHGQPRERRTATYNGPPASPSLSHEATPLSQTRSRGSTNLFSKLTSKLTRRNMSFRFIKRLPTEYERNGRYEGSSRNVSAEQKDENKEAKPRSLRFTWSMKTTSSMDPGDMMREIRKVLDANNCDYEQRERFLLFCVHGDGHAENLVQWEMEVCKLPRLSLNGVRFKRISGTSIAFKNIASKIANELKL
UniProt Q9P0L2: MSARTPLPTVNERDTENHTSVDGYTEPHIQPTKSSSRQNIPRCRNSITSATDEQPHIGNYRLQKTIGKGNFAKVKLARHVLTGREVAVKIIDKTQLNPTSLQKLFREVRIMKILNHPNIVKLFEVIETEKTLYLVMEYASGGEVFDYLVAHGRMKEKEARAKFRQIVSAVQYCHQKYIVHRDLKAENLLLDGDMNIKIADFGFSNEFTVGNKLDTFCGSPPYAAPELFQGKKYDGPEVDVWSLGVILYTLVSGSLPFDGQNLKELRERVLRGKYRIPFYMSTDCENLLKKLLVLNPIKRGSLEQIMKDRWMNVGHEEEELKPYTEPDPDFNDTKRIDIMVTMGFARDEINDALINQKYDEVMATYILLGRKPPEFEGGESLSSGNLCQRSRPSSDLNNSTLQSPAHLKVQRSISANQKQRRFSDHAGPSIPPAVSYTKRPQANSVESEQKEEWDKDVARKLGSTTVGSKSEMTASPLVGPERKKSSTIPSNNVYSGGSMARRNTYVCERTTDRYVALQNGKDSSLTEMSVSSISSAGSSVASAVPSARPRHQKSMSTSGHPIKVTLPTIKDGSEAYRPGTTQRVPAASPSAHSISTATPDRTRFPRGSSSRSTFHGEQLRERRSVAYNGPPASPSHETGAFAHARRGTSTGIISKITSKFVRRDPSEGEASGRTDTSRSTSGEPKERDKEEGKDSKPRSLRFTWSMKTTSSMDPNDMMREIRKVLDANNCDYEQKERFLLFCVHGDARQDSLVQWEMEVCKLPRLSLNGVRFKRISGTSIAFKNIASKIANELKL

Target: T1, NUMB (bait of the NUMB coprecipitates analysed by mass spectrometry) (UniProt P49757)
T1 sequence: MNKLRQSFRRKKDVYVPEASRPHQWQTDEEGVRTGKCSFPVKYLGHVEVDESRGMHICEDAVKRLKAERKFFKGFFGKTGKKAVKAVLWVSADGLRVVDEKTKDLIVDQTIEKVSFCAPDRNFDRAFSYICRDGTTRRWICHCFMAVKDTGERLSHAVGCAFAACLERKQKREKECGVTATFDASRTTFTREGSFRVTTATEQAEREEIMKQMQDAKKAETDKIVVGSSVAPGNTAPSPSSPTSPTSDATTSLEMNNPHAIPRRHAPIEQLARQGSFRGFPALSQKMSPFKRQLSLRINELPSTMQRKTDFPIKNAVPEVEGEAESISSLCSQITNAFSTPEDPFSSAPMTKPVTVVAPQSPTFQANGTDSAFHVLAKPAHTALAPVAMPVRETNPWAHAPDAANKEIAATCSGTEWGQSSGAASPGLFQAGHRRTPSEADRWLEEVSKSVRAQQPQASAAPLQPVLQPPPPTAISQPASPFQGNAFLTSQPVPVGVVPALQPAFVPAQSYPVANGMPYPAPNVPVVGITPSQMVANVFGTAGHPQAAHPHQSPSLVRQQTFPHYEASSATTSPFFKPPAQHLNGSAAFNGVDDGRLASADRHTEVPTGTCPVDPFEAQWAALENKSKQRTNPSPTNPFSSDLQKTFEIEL
Assay: affinity purification with mass spectrometry; NUMB coprecipitates analysed by mass spectrometry; cells not given

binding, binds:
ZO-1 (from UniProt Q07157 1-1748)
ZO-2 (from UniProt Q9UDY2 1-1190)
α-catenin
β-catenin (from UniProt P35222 1-781)

Target: T2, sterile 20-like kinase MST2 (UniProt Q13188)
T2 sequence: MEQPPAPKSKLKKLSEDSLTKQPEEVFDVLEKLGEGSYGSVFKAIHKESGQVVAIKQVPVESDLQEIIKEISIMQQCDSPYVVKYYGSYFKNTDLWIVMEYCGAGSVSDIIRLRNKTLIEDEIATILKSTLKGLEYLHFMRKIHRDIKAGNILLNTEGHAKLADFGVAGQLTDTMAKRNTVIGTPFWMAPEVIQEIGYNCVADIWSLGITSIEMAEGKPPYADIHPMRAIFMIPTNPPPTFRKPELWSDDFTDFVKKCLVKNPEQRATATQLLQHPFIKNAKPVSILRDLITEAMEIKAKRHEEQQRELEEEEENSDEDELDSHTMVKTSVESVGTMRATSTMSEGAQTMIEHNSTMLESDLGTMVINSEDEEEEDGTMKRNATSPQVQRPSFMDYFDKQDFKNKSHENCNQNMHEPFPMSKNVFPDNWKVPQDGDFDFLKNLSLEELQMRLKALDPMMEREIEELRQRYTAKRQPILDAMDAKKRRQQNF
Assay: affinity purification with mass spectrometry; MST2 coprecipitates from HepG2 cell lysates, DIA-MS; cells cultured under LCD or HCD conditions

binding, binds:
microtubule affinity-regulating kinase 2 (from UniProt Q7KZI7 1-788) (enzyme)
microtubule affinity-regulating kinase 3 (from UniProt P27448 1-753) (enzyme)

Target: T3, NUMB1 (bait of the NUMB1 coprecipitates analysed by mass spectrometry) (UniProt P49757)
T3 sequence: T1 sequence
Assay: affinity purification with mass spectrometry; NUMB1 coprecipitates analysed by mass spectrometry; cells not given

binding, binds:
MARK1 (in NUMB1 coprecipitates) (from UniProt Q9P0L2 1-795) (enzyme)
MARK2 (in NUMB1 coprecipitates) (from UniProt Q7KZI7 1-788) (enzyme)
MARK3 (in NUMB1 coprecipitates) (from UniProt P27448 1-753) (enzyme)
